Laboratory results: PubChem BioAssay AID743454 (Peter MacCallum Cancer Centre, 2014)
In all, the deposit lists about 18,000 reagents; this is a random part of them. Of all reagents, 450 (2.5%) were called active. 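Single biological run; no consistent viability z cut-off exists, so the class columns, not z-scores, define the calls.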

- Test: 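Search for knock-downs that restore vorinostat killing in resistant colon cancer cells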 (primary screen)
- Cells: human HCT116-VR colon cancer cells, selected for vorinostat resistance
- Reagent: siRNA pool against human genes, 40 nM siRNA pool
- Timing: vorinostat for 24 h, read-out about 72 h after transfection
- Treatment: vorinostat at 2.5 µM final
- Measured: 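Two measures, CellTiter-Fluor viability and luminescent caspase 3/7 activity, each as fold change against same-plate mock wells, mean of duplicates, then screen-wide robust z-score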
- Scale: viability robust z-score: higher = more viable cells than screen typical; caspase robust z-score: higher = more caspase 3/7 activity than screen typical
- Call rule: 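a knock-down is a hit when classed RV1 or RV2 for lowered viability, or CA1 or CA2 for caspase activation; those lethal without drug were dropped; hits were retested singly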

| target gene | viability hit class | caspase hit class | viability robust z-score | caspase robust z-score | Outcome |
| --- | --- | --- | --- | --- | --- |
| FNDC11 (fibronectin type III domain containing 11) | no change | no change | 0.98 | -0.75 | inactive |
| DUSP8 (dual specificity phosphatase 8) | no change | no change | -0.41 | 0.91 | inactive |
| HPSE (heparanase) | no change | no change | 0.38 | 0.36 | inactive |
| PDCL3 (phosducin like 3) | no change | no change | 0.92 | -0.92 | inactive |
| ATG4B (autophagy related 4B cysteine peptidase) | no change | no change | -1.02 | -1.03 | inactive |
| PFKFB1 (6-phosphofructo-2-kinase/fructose-2,6-biphosphatase 1) | no change | no change | -1.83 | 2.25 | inactive |
| KRT26 (keratin 26) | no change | no change | -0.88 | -0.11 | inactive |
| LILRA6 (leukocyte immunoglobulin like receptor A6) | no change | no change | 0.2 | -0.22 | inactive |
| TRPM2 | no change | no change | -0.07 | 0.23 | inactive |
| DEDD2 (death effector domain containing 2) | no change | no change | -0.82 | 4.11 | inactive |
| GRM2 (glutamate metabotropic receptor 2) | no change | no change | 0.31 | 0.54 | inactive |
| SCN5A (sodium voltage-gated channel alpha subunit 5) | no change | no change | 0.76 | 0.42 | inactive |
| VPS33B (VPS33B late endosome and lysosome associated) | no change | no change | -0.79 | -0.02 | inactive |
| LBX2 (ladybird homeobox 2) | no change | no change | -1.26 | 0.75 | inactive |
| H2AB3 (H2A.B variant histone 3) | no change | no change | 0.27 | 2.29 | inactive |
| BPIFA1 (BPI fold containing family A member 1) | no change | no change | 0.53 | -0.97 | inactive |
| MATCAP1 (microtubule associated tyrosine carboxypeptidase 1) | no change | no change | 0.74 | -0.38 | inactive |
| HLA-DPB1 (major histocompatibility complex, class II, DP beta 1) | no change | no change | -0.32 | -0.32 | inactive |
| ZFAT (zinc finger and AT-hook domain containing) | no change | no change | 1.07 | 0.31 | inactive |
| RPL10A (ribosomal protein L10a) | no change | no change | -3.49 | -1.34 | inactive |
| COX7A2L (cytochrome c oxidase subunit 7A2 like) | no change | no change | -1.77 | 0.18 | inactive |
| ZNF417 (zinc finger protein 417) | no change | no change | 0.04 | 0.08 | inactive |
| APOBEC3G (apolipoprotein B mRNA editing enzyme catalytic subunit 3G) | no change | no change | 0.46 | -0.23 | inactive |
| ABCF3 (ATP binding cassette subfamily F member 3) | no change | no change | 0.12 | 0.56 | inactive |
| CARD8 (caspase recruitment domain family member 8) | no change | no change | -0.05 | 0.64 | inactive |
| FAM229B (family with sequence similarity 229 member B) | no change | no change | -0.62 | -0.44 | inactive |
| EPHX3 (epoxide hydrolase 3) | no change | no change | -0.56 | 1.46 | inactive |
| POTEH (POTE ankyrin domain family member H) | no change | no change | -1.25 | 0.97 | inactive |
| THUMPD3 (THUMP domain 3 tRNA guanosine methyltransferase) | no change | no change | -0.04 | -1 | inactive |
| ZNF575 (zinc finger protein 575) | no change | no change | 0.34 | -0.2 | inactive |
| XK | no change | no change | 1.19 | -0.2 | inactive |
| ACADVL (acyl-CoA dehydrogenase very long chain) | no change | no change | 0.64 | 0.25 | inactive |
| DSP (desmoplakin) | no change | no change | 1.27 | 0 | inactive |
| NXPH4 (neurexophilin 4) | no change | no change | 0.74 | 0.08 | inactive |
| BMPR1A (bone morphogenetic protein receptor type 1A) | no change | no change | 1.22 | -0.11 | inactive |
| DEFB106A (defensin beta 106A) | no change | no change | 0.64 | -0.8 | inactive |
| SLC34A2 | no change | no change | 0.8 | -0.32 | inactive |
| LINC00482 (long independently transcribed non-coding RNA 482) | no change | no change | -0.36 | -0.68 | inactive |
| SBF2 (SET binding factor 2) | no change | no change | -0.42 | -0.15 | inactive |
